Test results published in patent US20050256195A1, “Composition for preventing hypertension” (priority 2002, published 2005).

Settings: 20 adults

CC(=O)O [acetic acid]
participants who indicated ease of drinking (10 g or lower acetic acid in 1,000 g beverage): ≥ 18 participants | participants who recognized a problem of taste (30 g acetic acid in 1,000 g beverage): 10 participants | participants who pointed out a problem of taste (50 g acetic acid in 1,000 g beverage): 19 participants
